Among the data in patent US20030088884A1 are binding values, retold here.

The assay addresses T1, porcine relaxin (porcine) (UniProt P01348).
T1 sequence (looked up) 1: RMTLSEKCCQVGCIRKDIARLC
T1 sequence (looked up) 2: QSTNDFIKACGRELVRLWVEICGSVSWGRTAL
Briefly: cross-linking with disuccinimidyl suberate in PBS, SDS-PAGE, blot with anti-relaxin antibody.

These are yes or no findings as the source states them, for the method shown. Some binding calls cover weakened binding; strength is not graded here. Sequences can lack the tags named with a protein.

B1: 7BP, soluble ectodomain of LGR7 tagged with 6-His and M1 epitopes (receptor, UniProt Q9HBX9 23-402, looked up, not shown: small tags and cut ends)
chain: QDVKCSLGYFPCGNITKCLPQLLHCNGVDDCGNQADEDNCGDNNGWSLQFDKYFASYYKMTSQYPFEAETPECLVGSVPVQCLCQGLELDCDETNLRAVPSVSSNVTAMSLQWNLIRKLPPDCFKNYHDLQKLYLQNNKITSISIYAFRGLNSLTKLYLSHNRITFLKPGVFEDLHRLEWLIIEDNHLSRISPPTFYGLNSLILLVLMNNVLTRLPDKPLCQHMPRLHWLDLEGNHIHNLRNLTFISCSNLTVLVMRKNKINHLNENTFAPLQKLDELDLGSNKIENLPPLIFKDLKELSQLNLSYNPIQKIQANQFDYLVKLKSLSLEGIEISNIQQRMFRPLMNLSHIYFKKFQYCGYAPHVRSCKPNTDGISSLENL
Consider B1, for which the binding result is recorded as “binds”.
